# Measured values reported in PubChem BioAssay AID1259415 (National Center for Advancing Translational Sciences (NCATS), 2018).
# The whole screen tested about 410,000 compounds, of which about 18,000 (4.4%) were called active. The shares of active, inactive and inconclusive entries below differ from those in the screen. No stated cut-off is given here; in the data, active means activity change below about -60%; inconclusive means no clear call, values can overlap the other calls; inactive means above about -39%.
# Experiment: qHTS Assay for inhibitors of the human cytomegalovirus (HCMV)
# Conditions: HFF cells, HCMV-luciferase reporter, 72 h; at 57.5 µM; stronger effect = lower value
# Procedure, shortened: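 Inhibition of viral replication was scored as loss of reporter luminescence in HFFs infected with HCMV-luciferase (MOI 1 PFU/cell) for 72 h; compounds tested at 2 doses, normalized to buffer and Salinomycin controls.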
# On the % scale 0 is the no-effect control and ±100 the full control effect.
row,Structure (SMILES),"activity change, negative = inhibition"
1,COc1ccc(S(=O)(=O)N2CCCCCC2)cc1N(C)S(=O)(=O)c1ccccc1,inconclusive: -55.8%
2,CC(C)=CCC/C(C)=C/Cc1c(O)ccc(C(=O)/C=C/c2ccc(O)cc2)c1O,inactive: -23.6%
3,S=C(NCc1ccc(Cl)cc1)Nc1ccccc1Cl,inconclusive: -41.3%
4,CCCc1nc(NCc2ccco2)c(C#N)c2c1COC(C)(C)C2,inconclusive: -45.2%
5,CC(=O)C1=C(O)C(=O)N(CCc2c[nH]c3ccccc23)C1c1ccc(C)cc1 (stereo not given),inconclusive: -49%
6,Cc1ccc(NS(=O)(=O)c2cc(NC(=O)C(C)Oc3ccccc3)ccc2C)c(C)c1 (stereo not given),inactive: -6.9%
7,CCCCC(C(=O)O)C(C)CC(=O)NNC(=O)c1ccco1 (stereo not given),inconclusive: -44.4%
8,Cc1c(C(=O)NN2CCCCC2)nn(-c2ccc(Cl)cc2Cl)c1-c1ccc(Cl)cc1,inconclusive: -49%
9,COc1ccc(NC(=O)CN(C)C(=O)c2cc(-c3ccccc3)nc3ccccc23)cc1,inactive: -16.9%
10,O=C(c1cc(COc2ccc(F)cc2F)on1)N1CCCC(c2ccccc2)C1 (stereo not given),active: -62.5%
11,CC(C)c1ccc(NC(=O)CSc2nc(=O)n(Cc3ccccn3)c3c2CCC3)cc1,active: -102%
12,COc1ccc2c(c1OC)C(=O)OC2Nc1nc(-c2ccccc2)cs1 (stereo not given),active: -104%
13,O=C(COC(=O)COc1ccc(Cl)cc1Br)NC1CC1,inactive: 17.9%
14,CN(C)c1nc(N2CCN(c3ccc(F)cc3)CC2)c(C#N)c(=O)o1,inconclusive: -52.2%
15,COc1ccc(CC(=O)N[C@@H]2c3cc(OC)c(OC)cc3C[C@H]2OCc2ccccc2)cc1,inconclusive: -44.3%
16,O=C(CP(=O)(c1ccccc1)c1ccccc1)N/N=C/c1cc(Br)cc(Br)c1O,inconclusive: -41.4%
17,Cc1oc2c(C)c3oc(=O)c(CCC(=O)NCCCCCC(=O)O)c(C)c3cc2c1C,inconclusive: -40.6%
18,Cc1cc(C)c(S(=O)(=O)Nc2ccc(-c3cn4ccccc4n3)cc2)c(C)c1,inconclusive: -42.5%
19,CCN(CC)S(=O)(=O)c1cccc(NC(=O)CSc2nc3ccccc3[nH]2)c1,inconclusive: -41.2%
20,CC(C)c1ccc(NC(=O)Cn2cc(S(=O)(=O)Cc3cccc(Cl)c3)c3ccccc32)cc1,inconclusive: 0%
21,O=C(CCS(=O)(=O)c1nc(-c2cccs2)cc(C(F)(F)F)n1)Nc1cc(Br)ccc1O,active: -99.6%
22,COc1ccccc1C/C(N)=N/OC(=O)COc1ccc(C)cc1,inactive: -5.59%

# Reprinted from the results shown, six compounds:
row,Structure (SMILES),"activity change, negative = inhibition"
5,CC(=O)C1=C(O)C(=O)N(CCc2c[nH]c3ccccc23)C1c1ccc(C)cc1 (stereo not given),inconclusive: -49%
6,Cc1ccc(NS(=O)(=O)c2cc(NC(=O)C(C)Oc3ccccc3)ccc2C)c(C)c1 (stereo not given),inactive: -6.9%
7,CCCCC(C(=O)O)C(C)CC(=O)NNC(=O)c1ccco1 (stereo not given),inconclusive: -44.4%
8,Cc1c(C(=O)NN2CCCCC2)nn(-c2ccc(Cl)cc2Cl)c1-c1ccc(Cl)cc1,inconclusive: -49%
9,COc1ccc(NC(=O)CN(C)C(=O)c2cc(-c3ccccc3)nc3ccccc23)cc1,inactive: -16.9%
10,O=C(c1cc(COc2ccc(F)cc2F)on1)N1CCCC(c2ccccc2)C1 (stereo not given),active: -62.5%

# The results go on.

row,Structure (SMILES),"activity change, negative = inhibition"
1,Cc1cc(C)nc(NC(=S)Nc2ccc(Br)cc2Cl)c1,inconclusive: -58.5%
2,CCCOc1ccc(C(=O)Nc2ccc3oc(-c4cccc(Cl)c4Cl)nc3c2)cc1,inconclusive: -52.1%
3,CCOC(=O)c1ccc(NC(=O)C(Cc2ccccc2)N2Cc3ccccc3C2=O)cc1 (stereo not given),inactive: -35.7%
4,COc1cccc(-c2nc(CS(=O)(=O)CC(=O)N3CCCCC3)c(C)o2)c1,inconclusive: -43.3%
5,Cc1ccc(OCCOc2ccc(Br)cc2)c([N+](=O)[O-])n1,inactive: 84.2%
6,CCCCCc1nnc(NC(=O)OCCC)s1,inactive: 21.7%
7,Cc1ccc(CC(=O)Nc2ccc3c(c2)N(C)C(=O)c2ccccc2S3)cc1,inconclusive: -49.7%
8,COCCn1c(C)cc(C(=O)COc2ccc(C)nc2[N+](=O)[O-])c1C,active: -93.9%
9,CCOC(=O)C1Nc2ccccc2C2C(O)C(O)CC12 (stereo not given),inconclusive: -40.6%
10,Cn1cc([N+](=O)[O-])c(C(=O)N/N=C/c2ccc3c(c2)OCO3)n1,inconclusive: -40.7%
11,CCOCCCNC(=O)c1cc(Sc2cccc(Cl)c2)nc2ccccc12,inconclusive: -47.9%
12,Cc1ccc(/C=N/NC(=O)C2CC(=O)N(c3ccccc3)C2)s1 (stereo not given),inconclusive: -57.7%
13,O=C(OCc1nnc(-c2ccc(Br)cc2)o1)c1cncc(Br)c1,inconclusive: -49.2%
14,COc1ccc(NC(=O)COc2ccc(C(=O)c3ccc(F)cc3)cc2)cc1S(N)(=O)=O,inconclusive: -44.4%
15,Cn1cnc(C(=O)NCc2ccc(CNC(=O)OC(C)(C)C)cc2)c1C(=O)NCc1ccc(CNC(=O)OC(C)(C)C)cc1,inconclusive: -49.3%
16,COc1cc2c(cc1OC)n(CC(=O)c1cccc(Cl)c1)c(=O)n1nc(CCn3nc(C)cc3C)nc21,inactive: -10%
17,O=C(c1cc(COc2cccc3cnccc23)on1)N1CCCC(CCCO)C1 (stereo not given),active: -85.5%
18,CCN(CC)CCN1CNC(=S)N(c2ccccc2OC)C1,active: -64.8%
19,CN(C(=O)CSc1nc2ccccc2c(=O)n1-c1ccc(F)cc1)C1CCS(=O)(=O)C1 (stereo not given),inconclusive: -42.4%
20,c1ccc(-c2nc(NCc3cccs3)c3ccccc3n2)cc1,inconclusive: -52.1%
21,CCOC(=O)[C@]12Cc3cc(C)ccc3[C@H]1N(C)C(=O)c1cc(OC)ccc12,active: -109%
22,CCc1cccc(OCC(=O)Nc2ccc(C(=O)O)cc2NC(=O)COc2cccc(CC)c2)c1,inconclusive: -49%

row,Structure (SMILES),"activity change, negative = inhibition"
1,Cc1cc(Cl)ccc1OC(C)C(=O)Nc1ccc(S(=O)(=O)N2CCOCC2)cc1 (stereo not given),inactive: 5.94%
2,CCc1ccc(NC(=O)C2CCCN2S(=O)(=O)c2ccc3c(c2)n(C)c(=O)c(=O)n3C)cc1 (stereo not given),inconclusive: -48.9%
3,CCN1CCc2c(sc(NC(=O)Cc3ccccc3)c2C(=O)OC)C1,inconclusive: -49.7%
4,COc1ccccc1NC(=O)CSc1nnc(NC(=O)Nc2ccc(C)cc2)s1,active: -86.1%
5,CCOC(=O)/C(=C\Nc1cccc(OCc2ccccc2)c1)NC(=O)c1ccccc1,active: -60.3%
6,O=C(NNc1cccc(Cl)n1)c1ccc(Cl)nc1,inconclusive: -53.2%
7,COc1ccc(S(=O)(=O)NCCc2csc3nc(-c4cccc(C)c4)nn23)cc1F,inconclusive: -54.2%
8,CNC(=O)NC(O)C(Cl)(Cl)Cl (stereo not given),inconclusive: -41.1%
9,CCCCN1C(=O)c2[nH]nc(-c3ccccc3O)c2C1c1ccc(OCc2ccccc2)cc1 (stereo not given),active: -108%
10,O=C(CCN1C(=O)/C(=C/C=C/c2ccccc2)SC1=S)Nc1ccccn1,active: -64.8%
11,O=C1c2ccccc2C(Nc2ccc3c(c2)OCCO3)N1Cc1ccco1 (stereo not given),active: -60.9%
12,Cc1c(N=Cc2c(O)n(C)c(=O)[nH]c2=O)c(=O)n(-c2ccccc2)n1C,inactive: 35.1%
13,O=C(CN1C(=O)C2CCCN2c2ncc(Cl)cc21)NCc1ccc2c(c1)OCO2 (stereo not given),inactive: -13%
14,COc1ccc(-n2c(-c3ccc(Br)cc3)c[n+]3c2CCC3)cc1,active: -92.3%
15,CC1(C)N([O-])C2=C(CCCC2)[N+]1=O,inconclusive: -44.3%
16,O=C(NN1C(=O)c2ccccc2NC12CCCCC2)c1ccccc1,inconclusive: -45%
17,CC1=C(C(=O)Nc2ccc(C)cc2C)C(c2ccc([N+](=O)[O-])cc2)n2ncc(C(=O)Nc3ccc(F)cc3)c2N1 (stereo not given),inactive: -0.757%
18,O=C1/C(=C\c2ccc(-c3ccccc3Cl)o2)SC(=S)N1CC1CCCO1 (stereo not given),inactive: -20.3%
19,Oc1ccc(/C=N/n2c(-c3ccco3)csc2=Nc2cccnc2)c(O)c1,inconclusive: -58.6%
20,O=C(CSc1nc2ccccc2c(=O)n1-c1ccccc1)Nc1ccc2c(c1)CCC2,inconclusive: -41%
21,COc1cc(CNc2ccc(N3CCCCC3)cc2)ccc1OCC(=O)NC(C)(C)C,active: -86.1%
22,CS(=O)(=O)N1CCN(c2ccccc2[N+](=O)[O-])CC1,inconclusive: -57.6%

row,Structure (SMILES),"activity change, negative = inhibition"
1,NNC(=O)c1ccc(N2CCCCCC2)c([N+](=O)[O-])c1,inconclusive: -46.6%
2,CC(=O)Nc1ccc(S(=O)(=O)Oc2ccc(/C=C3\SC(N)=NC3=O)cc2)cc1,inconclusive: -52.8%
3,COC(=O)[C@]12CCCCC=C1N(Cc1ccco1)C(=O)[C@H](CC(=O)N1CCN(C(=O)C3CC3)CC1)C2,inactive: 3.51%
4,Cc1ccccc1-n1c([C@@H]2C[C@H]2c2ccccc2)n[nH]c1=S,inconclusive: -44.1%
5,Cc1cc(C)n(Cc2ccc(C(=O)O)cc2)n1,active: -64.8%
6,CC1(C)CC(=O)c2c(nc3ccccc3c2N)C1,inconclusive: -59.2%
7,O=C1CCC(=O)N1OCCCOc1ccc(Br)cc1Cl,inconclusive: -44.8%
8,COc1cc(NC(=S)Nc2ccc(OC(F)F)cc2)cc(OC)c1,inconclusive: -40%
9,Cc1cc2c(cc1S(=O)(=O)Nc1c(C)cccc1C)n(C)c(=O)c(=O)n2C,inconclusive: -52.7%
10,COc1cc(C2c3cc4c(cc3OC(NCc3ccccc3)C2C)OCO4)cc(OC)c1OC (stereo not given),active: -79.9%
11,Cc1cc(/C=C2\C(=O)NC(=O)N(c3cccc(Br)c3)C2=O)c(C)n1C,inconclusive: -40.6%
12,O=C(CCCc1nc(-c2ccc(Cl)cc2)no1)N1CCOCC1,inconclusive: -56.8%
13,Cc1cc(C)c(NS(=O)(=O)c2cc(-c3onc(C)c3C)ccc2C)c(C)c1,active: -62.2%
14,Cc1ccc(NC(=O)c2cnc(SCC(=O)N3CCOCC3)n(C)c2=O)cc1C,inconclusive: -44.6%
15,CCCCC(=O)Nc1ccc(C(N)=O)cc1,inactive: 38.6%
16,COc1ccccc1C(=O)NC(=O)COC(=O)Cn1[nH]c(=O)c2ccccc2c1=O,inconclusive: -48.7%
17,N#Cc1ccccc1NC(=O)CSc1ccc([N+](=O)[O-])cn1,active: -65.8%
18,CC(C)N(C)C1=CC(=O)C(N(C)C(C)C)=CC1=O,inconclusive: -44.8%
19,CCOCCOC(=O)CCSc1n[nH]c(=O)[nH]c1=O,inactive: -20.9%
